This note sets out measurements from patent US6410721.

Construct, isoform or probe ends are uncertain for at least one entry. For part of these data: Where cells or extracts were used, other partners may take part. For part of these data: Negatives hold for the conditions tested. For part of these data: A weaker result is weaker than the reference pair of the same experiment.

The subject of data set [1] is RF-X transcription factor (nuclear extract of Raji cells) (Homo sapiens). The experiment in a line: EMSA. Conditions: protein in an extract.
Data set [2] shares this test system. The experiment in a line: competition with a labelled probe. Conditions: competed with hot AX probe, in contrast to direct binding assay; protein in an extract.
The test system of data set [3] is RF-X (from rabbit reticulocyte lysate). The experiment in a line: EMSA. To be noted: preincubated decoy at 100 and 200 fold excess; labelled X-box probe unable to compete decoy off RF-X; protein translated in vitro; protein details: sample from B. M. Peterlin, UCSF; folded or branched DNA.

Regarding “CCCCTAGCAACAGATG (double strand) [16 bp X-box]”, the binding result was “no binding” in data set [1] (no measurable direct binding) and “binds” in data set [2].
Take “CTAGGGGTTTTTCCCCTAGCAACAGATGTTTTTCATCTGTTG [RF-X decoy T5 (42* mer, ligated)]”: the binding result in data set [1] (binds to a lesser degree than RF-X decoy, also competes with AX (p198), folded or branched DNA, variant of RF-X decoy (ligated, 4T loops)) is listed as “binds more weakly”.
On to “GACTGGGTTTTCCCAGTCCATACGAAGTTTTCTTCGTATG [RF-X-2 decoy (ligated)]”, for which the binding result in data set [1] (no measurable binding in gel shift, decoy active in CAT assay, folded or branched DNA) is reported as “no binding”.
On to “GACTGGGTTTTCCCAGTCCATACGAAGTTTTCTTCGTATG [unligated RF-X-2 decoy]”, for which the binding result in data set [1] (no measurable binding in gel shift, decoy active in CAT assay, folded or branched DNA, variant of RF-X-2 decoy (ligated)) was “no binding”.
Take “GCTAGGGGTTTTTCCCCTAGCAACAGATGTTTTTCATCTGTT [42-mer polynucleotide decoy (Example 1)]”: in data set [3], the binding result was “binds”.
For the sequence “TATACGGGTTTTCCCGTATACCACTCTGTTTTCAGAGTGG [M6 decoy (ligated)]”, the binding result in data set [1] (no measurable binding, folded or branched DNA, variant of RF-X decoy (ligated, 4T loops)) is reported as “no binding”.
For the sequence “TATACGGGTTTTCCCGTATACCACTCTGTTTTCAGAGTGG [unligated M6 decoy]”, the binding result in data set [1] (no measurable binding, folded or branched DNA, variant of M6 decoy (ligated)) is “no binding”.
“TGAGTTGGTTTTCCAACTCACTTTCCGCTTTTGCGGAAAG [unligated kappaB mutant]”: the binding result in data set [1] (no measurable binding, kappaB mutant also did not compete with AX (p198), folded or branched DNA) is reported as “no binding”.
